Results as given in PubChem BioAssay AID504834 (National Center for Advancing Translational Sciences (NCATS), 2011).
Among all 320,000 compounds or so, about 22,000 (6.9%) were called active. This list was built around the results that the source calls inconclusive (neither active nor inactive); the mix of calls is not that of the screen. Calls come from the whole dose curve; as a rule, active = well fitted inhibition curve with a large enough effect; inconclusive = small, poorly fitted or top-dose-only effect, or another doubt; inactive = no such curve, though single readings can be large or run the other way. Potencies beside an inconclusive call are fits to weak or partial responses and may not hold up.
Potency is the fitted concentration of half-maximal effect.

Assay: Primary qHTS for delayed death inhibitors of the malarial parasite plastid, 96 hour incubation
Details: P. falciparum luciferase reporter growth; series mostly up to 28.7 µM
Outline: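 P. falciparum expressing integrated firefly luciferase, in erythrocytes at 2% hematocrit, 0.05% parasitemia, incubated with compounds 96 h at 37 C, 5% CO2. Growth inhibition read as loss of luminescence; two-generation exposure targets delayed-death apicoplast inhibitors.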
In the case of `CCCCN(C(=O)CSc1nnnn1C)c1c(N)n(Cc2ccccc2)c(=O)[nH]c1=O`, the Potency is reported as “inactive”. With `CSCC[C@H](NC(=O)c1nn(C)c(=O)c2ccccc12)c1nc2ccccc2[nH]1` the Potency was inconclusive: 11.7 µM [inhibitor, single point]. For `CCOc1cc(/C=N/NC(=O)CCCC(=O)NC2CCCCC2)ccc1O`, the Potency was inconclusive: 18.5 µM [inhibitor, single point]. In the case of `COc1ccc(C(C)=O)cc1Cn1cnc2c(cnn2C)c1=O`, the Potency is reported as “inactive”. In the case of `Cc1cccc(N(Cc2cc3ccc(C)cc3[nH]c2=O)C(=O)c2ccco2)c1`, the Potency is reported as active: 10.4 µM. With `CN=C(Nc1ccccc1)SC1CC(=O)N(c2ccc(C(=O)OC)cc2)C1=O` (configuration not stated) the Potency was inconclusive: 11.7 µM [inhibitor, single point]. For `COc1cccc(CNC(=O)C2CCN(c3nn4c(=O)cc(C)nc4s3)CC2)c1`, the Potency was inconclusive: 18.5 µM [inhibitor, single point]. With `CCCNC(=S)N(Cc1cc2cc(C)ccc2n2nnnc12)CC(C)(C)CN(C)C` the Potency was inconclusive: 18.5 µM [inhibitor, single point]. For `COc1ccc(CCN(C)C(=O)c2c(C)nn(CC(C)C)c2Cl)cc1OC`, the Potency was inconclusive: 20.8 µM [inhibitor, single point]. With `COc1ccc(C(=O)COC(=O)c2ccc(NC(C)=O)cc2)cc1[N+](=O)[O-]` the Potency was inconclusive: 0.37 µM [inhibitor, partial curve, poor fit]. In the case of `COc1ccc(CNC(=O)COC(=O)CN2C(=O)COc3ccccc32)cc1`, the Potency is reported as inconclusive: 18.5 µM [inhibitor, single point]. In the case of `COC(=O)c1ccc(NC(=S)NC2c3ccccc3CC2O)cc1` (configuration not stated), the Potency is reported as “inactive”. With `O=C(NC1CCCCC1)c1cc(S(=O)(=O)N2CCCCC2)ccc1N1CCOCC1` the Potency was inconclusive: 14.7 µM [inhibitor, partial curve, poor fit]. In the case of `COc1ccc(OC)c(NC(=S)NN2CCOCC2)c1`, the Potency is reported as “inactive”. In the case of `COc1ccc(CCNCC(O)c2ccccc2)cc1` (configuration not stated), the Potency is reported as inconclusive: 0.131 µM [inhibitor, full curve, poor fit]. For `COc1ccc(OCC(O)CN2C(=O)c3ccccc3C2=O)cc1` (configuration not stated), the Potency was “inactive”. With `CCCCn1nc2cc(C(=O)NCc3ccc4c(c3)OCO4)ccc2c1OCC` the Potency was inconclusive: 9.28 µM [inhibitor, single point]. With `Cc1ccc(CN2C(=O)C3CCCN3c3ccc(S(=O)(=O)N4CCOCC4)cc32)cc1` (configuration not stated) the Potency was active: 1.65 µM. In the case of `CCOC(=O)CNC(=O)CSc1nnc(Cn2c(=O)sc3ccccc32)n1C`, the Potency is reported as “inactive”. In the case of `CCOc1ccc(-c2nnc(N3CCOCC3)c3ccccc23)cc1`, the Potency is reported as inconclusive: 11.7 µM [inhibitor, single point]. With `CCOC(=O)c1cc(=O)n(Cc2ccccc2C)c2ccccc12` the Potency was inconclusive: 11.7 µM [inhibitor, partial curve, poor fit]. With `CN(C)c1ccc(NC(=O)CCN2C(=O)c3cccc([N+](=O)[O-])c3C2=O)cc1` the Potency was active: 11.7 µM. In the case of `Cc1ccc(NC(=O)c2cccs2)cc1NC(=O)c1ccc(F)cc1`, the Potency is reported as active: 10.4 µM. With `CCO/C(C)=C1/SC(=S)NC1=O` the Potency was “inactive”. In the case of `O=C(NC1CCN(c2ncccn2)CC1)c1ccccc1F`, the Potency is reported as “inactive”. In the case of `CCCCN(CC)CCNC(=O)c1cc2c(-c3ccccc3F)nn(C)c2s1`, the Potency is reported as “inactive”. For `CCN1CCN(CC(=O)Nc2ccc(N(C)C)cc2)CC1`, the Potency was “inactive”. In the case of `CCOC(=O)C1=C(C)N(c2ccc(OCC)cc2)C(=O)/C1=C\c1ccco1`, the Potency is reported as inconclusive: 0.522 µM [inhibitor, full curve, poor fit]. In the case of `Fc1ccc(NC(=S)N2CCSC2c2cccs2)cc1` (configuration not stated), the Potency is reported as inconclusive: 11.7 µM [inhibitor, single point]. In the case of `Cn1ccnc1SCC(=O)Nc1cccc(S(=O)(=O)N2CCCCCC2)c1`, the Potency is reported as inconclusive: 18.5 µM [inhibitor, single point]. With `CN(C)c1ccc(-c2cc([C@H]3[C@@H]4C=CCC[C@@]4(C)C(=O)N3Cc3ccccc3)ccc2F)cc1` the Potency was inconclusive: 10.4 µM [inhibitor, single point]. With `O=C(COC(=O)c1ccc(Cl)nc1)Nc1ccc(Cl)cc1` the Potency was “inactive”. In the case of `CCc1ccc2oc(=O)cc(CN3CCC(C)CC3)c2c1`, the Potency is reported as active: 2.94 µM. In the case of `Cc1nn(-c2ccccc2)c(Cl)c1/C=C1\SC(=S)N(C)C1=O`, the Potency is reported as inconclusive: 0.262 µM [inhibitor, full curve, poor fit]. In the case of `COC(CNC(=O)C(=O)Nc1cc2c3c(c1)CC(=O)N3CCC2)OC`, the Potency is reported as “inactive”. In the case of `O=C(NC(=S)Nc1ccc(N2CCOCC2)cc1)c1cccc(Cl)c1`, the Potency is reported as “inactive”. For `CC(=O)Nc1sc(N/N=C\c2cccc(Cl)c2)nc1-c1cccs1`, the Potency was inconclusive: 18.5 µM [inhibitor, single point]. For `CC12CCC(=O)N1C(C(=O)NCc1ccc(Cl)cc1Cl)CS2` (configuration not stated), the Potency was “inactive”. For `COc1ccc(C2CC(c3cccs3)=NN2C(=O)CSC2=NN3CCCC(=O)N=C3S2)cc1` (configuration not stated), the Potency was active: 2.62 µM. In the case of `CC(=O)Nc1ccc(NC(=O)C2CCN(S(=O)(=O)c3cccc4nonc34)CC2)cc1`, the Potency is reported as “inactive”. With `CC1CN(Cc2c(O)ccc3c(=O)c(-c4ccccc4Cl)coc23)CC(C)O1` (configuration not stated) the Potency was inconclusive: 0.294 µM [inhibitor, full curve, poor fit]. For `N#C/C(=C\c1ccc(C(=O)O)cc1)S(=O)(=O)c1cc(Br)ccc1Br`, the Potency was “inactive”. For `CCN(CC)CCN1C(=O)C(=O)/C(=C(/O)c2ccc(Cl)cc2)C1c1ccncc1` (configuration not stated), the Potency was “inactive”. With `COc1ccc(-c2nc(-c3ccccn3)ncc2S(C)(=O)=O)cc1` the Potency was “inactive”. For `C=CCNC(=S)N1CCN(c2ncc3c(=O)c(C(=O)O)cn(CC)c3n2)CC1`, the Potency was inconclusive: 7.38 µM [inhibitor, partial curve, poor fit]. With `Cc1ccc([C@@H]2[C@@H]3C(=O)N(c4ccccc4)C(=O)[C@@H]3[C@]3(Cc4ccccc4)C(=O)N(CC4CC4)CC(=O)N23)o1` the Potency was “inactive”. In the case of `COc1cnn(-c2ccc(C)cc2)c(=O)c1Br`, the Potency is reported as “inactive”. In the case of `Cc1sc2ncnc(Sc3ccccc3C(=O)Nc3ccc(C#N)cc3)c2c1C`, the Potency is reported as inconclusive: 18.5 µM [inhibitor, single point]. In the case of `Cc1nn(-c2ccccc2)c(=O)c2ccccc12`, the Potency is reported as inconclusive: 8.28 µM [inhibitor, single point]. In the case of `COc1cccc(CN(C)CC(=O)Nc2cccc(C(F)(F)F)c2)c1OC`, the Potency is reported as inconclusive: 13.1 µM [inhibitor, single point]. For `CC(=O)NCC(=O)OCC(=O)c1ccc(C)c(C)c1`, the Potency was “inactive”. In the case of `COc1ccc(Br)cc1/C=N/NC(=O)c1cc(OC)c(OC)c(OC)c1`, the Potency is reported as “inactive”. With `CCc1nnc(SCC(=O)Nc2nc(C)c(C(=O)N(C)C)s2)n1CC` the Potency was inconclusive: 20.8 µM [inhibitor, single point]. With `Cc1ccc(S(=O)(=O)CCC(=O)Nc2cccc(S(=O)(=O)N3CCCCCC3)c2)cc1` the Potency was inconclusive: 14.7 µM [inhibitor, single point]. With `O=c1[nH]c2ccc(Cl)cc2c(-c2ccccc2)c1[N+](=O)[O-]` the Potency was inconclusive: 9.28 µM [inhibitor, partial curve]. For `CCc1cccc(OCC(=O)Nc2cc(S(=O)(=O)N3CCOCC3)ccc2N2CCCC2)c1`, the Potency was active: 8.28 µM. For `OCCC1CN(Cc2ccc(F)cc2Cl)CCN1CCc1ccccc1` (configuration not stated), the Potency was inconclusive: 18.5 µM [inhibitor, single point]. With `N#Cc1sc2nc(-c3cccs3)cc(-c3ccc(Cl)cc3)c2c1N` the Potency was inconclusive: 3.7 µM [inhibitor, full curve, poor fit]. In the case of `O=c1c(Cl)c(Cl)cnn1Cc1ccccc1Cl`, the Potency is reported as inconclusive: 8.28 µM [inhibitor, partial curve, poor fit]. For `CC1CCCN(C(=O)CSc2nnc(-c3ccco3)n2C)C1` (configuration not stated), the Potency was inconclusive: 9.28 µM [inhibitor, single point]. With `CC(=O)NC1c2ccccc2C(=O)N1Cc1ccccc1` (configuration not stated) the Potency was inconclusive: 11.7 µM [inhibitor, partial curve, poor fit]. With `Cn1cccc1/C=N\NC(=O)C1COc2ccc(C(C)(C)C)cc2O1` (configuration not stated) the Potency was “inactive”. With `CN(C)N=Nc1nc2c(c(=O)n(C)c(=O)n2C)n1CC1CO1` (configuration not stated) the Potency was “inactive”. In the case of `CC(OC(=O)c1nsc(Cl)c1Cl)C(=O)NCc1ccc2c(c1)OCO2` (configuration not stated), the Potency is reported as inconclusive: 0.465 µM [inhibitor, full curve, poor fit]. In the case of `O=C(CCc1ccc(S(=O)(=O)N2CCOCC2)cc1)N1CCN(Cc2ccc3c(c2)OCO3)CC1`, the Potency is reported as active: 3.29 µM. With `O=C(CCNS(=O)(=O)c1cccs1)N1CCN(c2cccc(Cl)c2)CC1` the Potency was inconclusive: 4.65 µM [inhibitor, partial curve]. With `Cc1ccc(Cn2nc(C)c(NC(=O)C3(C)CC3(Br)Br)c2C)cc1` (configuration not stated) the Potency was inconclusive: 13.1 µM [inhibitor, single point]. For `Cc1c(-c2nnc(SCC(=O)O)n2-c2ccccc2Br)nnn1-c1ccccc1`, the Potency was inconclusive: 18.5 µM [inhibitor, single point]. In the case of `Cc1ccc(NC(=O)CCCCCN2C(=O)[C@@H]3Cc4ccccc4CN3C2=O)c(Cl)c1`, the Potency is reported as inconclusive: 18.5 µM [inhibitor, single point]. With `Cc1c(NC(=O)CSc2nnc(Nc3ccccc3)s2)c(=O)n(-c2ccccc2)n1C` the Potency was inconclusive: 18.5 µM [inhibitor, single point]. For `Cc1c(Cl)cccc1NC(=S)NCC1COc2ccccc2O1` (configuration not stated), the Potency was inconclusive: 11.7 µM [inhibitor, single point]. In the case of `O=C(CNC(=O)c1ccc2c(c1)S(=O)(=O)N=C1CCCCCN12)Nc1ccc(F)c(F)c1`, the Potency is reported as inconclusive: 6.57 µM [inhibitor, partial curve].
